At least one compound was matched to its structure with a doubt left.
Key:
[1] = Form A and Form B interconversion (competitive) slurries; assay type: physicochemical; settings: starting Form A + Form B
Protocol: Relative thermodynamic stabilities of anhydrous/non-solvated Forms A and B were studied at 2-8° C., room temperature (RT) and at 71-72° C. via interconversion (competitive) slurries. In these slurries, a given solvent system was pre-saturated with compound 092 (Form A+minor Form B) at the stated temperature, and a portion of the liquid phase was filtered into a mixture of solids containing relatively equal amounts of Form A and Form B. Interconversion slurries at 2-8° C. and RT were allowed to stir for 22 days, while slurries at 71-72° C. stirred for shorter duration (2-4 days). […] The results are reported in table 13 below where: liquid phase for each slurry was pre-saturated using as-received Form A+minor Form B; solvent ratios are v/v; water activity values were calculated using UNIFAC calculator at RT; and times and temperatures are approximate.

[2] = Stable polymorph form screen (slurry experiments); assay type: physicochemical; settings: slurry of Form A + minor Form B
Protocol: Slurry experiments were conducted to identify the stable form at various conditions. In these experiments, saturated solutions in various solvents containing excess undissolved solids (starting with Form A+minor Form B) were stirred for extended durations. Slurries at room temperature (RT) and 2-8° C. were typically conducted for approximately 2 weeks, while slurries at 72-73° C. were stirred for a shorter duration (1 day) to minimize the potential for decomposition. […] The results are shown in the table 12 where the time and temperatures are approximate.

Measured: Final form (XRPD Result)

CC1(NC(=O)c2cccc3nn(-c4cccnc4)cc23)CC1 [Compound 092, N-(1-methylcyclopropyl)-2-(3-pyridinyl)-2H-indazole 4-carboxamide]
Form A: [1]; EtOH, 71-72° C., 2 d | [1]; EtOH, RT, 22 d | [1]; NMP/water 80:20 (aw 0.39), 2-8° C., 22 d | [1]; NMP/water 80:20 (aw 0.39), 71-72° C., 2 d, analyzed damp | [1]; NMP/water 80:20 (aw 0.39), RT, 22 d | [2]; DCM, RT, 13 d, analyzed damp | [2]; DMF, RT, 13 d, analyzed damp | [2]; EtOH, 72-73° C., 1 d | [2]; EtOH, RT, 13 d, analyzed damp | [2]; IPA, RT, 13 d, analyzed damp | [2]; MEK, 72-73° C., 1 d | [2]; MEK, RT, 13 d, analyzed damp | [2]; MeOH, 2-8° C., 14 d | [2]; MeOH, RT, 13 d, analyzed damp | [2]; acetone, RT, 13 d, analyzed damp
